Measurements as given in the supplement of paper PMC12889115.
The list shows a part of the results. Values are raw readings; no control value is given beside them.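 First-pass screen: polymyxin B was added at a level that permeabilizes the Salmonella outer membrane while sparing the inner membrane. DMSO wells, with and without polymyxin B, defined maximum growth. Because plates differed from one another, each plate's data were ranked separately and the compounds with the lowest OD600 were carried forward as hits.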

Tested on: Salmonella enterica serovar Typhimurium SL1344
Experiment: bacterial growth OD600 after 18 h with compound and polymyxin B; higher = more bacterial growth (less inhibition)
Details: 50 µM, Mueller-Hinton broth

Structure (SMILES)	bacterial growth OD600 (polymyxin B 0.75 µg/mL)	bacterial growth OD600 (polymyxin B 1 µg/mL)
Cc1csc(SCC(=O)N2CCc3c(cnc(C)c3CNC(=O)c3ccccc3F)C2)n1	0.82	
O=C(NCC1(O)CCCCC1)c1coc(CN2CCN(C/C=C/c3ccccc3)CC2)n1		0.888
O=C(c1cccc(F)c1)N1CCC(C2(c3ccccn3)NC(=O)N(CCc3cccs3)C2=O)CC1 (stereo not given)	0.71	
COc1ccc(CNC(=O)CCC2CCCN(C(=O)/C=C/c3ccccn3)C2)c(OC)c1 (stereo not given)	0.802	
CC(=O)c1ccc(C(=O)NCC2CC(Cc3ccc(F)cc3)=NO2)cc1 (stereo not given)	0.747	
COCCNC(=O)c1cccc(OC2CCN(Cc3ccc(C(=O)OC)cc3)CC2)c1	1.01	
O=C(Nc1cccc(-n2cccn2)c1)C1CCCN1CCCC(F)(F)F (stereo not given)	0.766	
O=C(NCC1CCCN(C(=O)C2CCOCC2)C1)c1ccc(-c2ccccc2)cc1 (stereo not given)		0.92
COCCCNc1nc2nonc2nc1N1CCN(Cc2ccccc2OC)CC1		1.12
COC(=O)CSc1ncc(-c2ccc(F)cc2)c(C2CCCN(C(=O)c3csc(C)n3)C2)n1 (stereo not given)	0.511	
COc1ccc(CCN2C(=O)O[C@@H]3CN(c4nc(OC)cc(OC)n4)C[C@@H]32)cc1		0.877
O=C1CCC(C(=O)N2CCC3(CCCN(CCCc4ccccc4)C3)C2)=NN1 (stereo not given)		0.864
O=C(CC1CCCC1)N1CCC2(CCCN(Cc3ccccc3F)C2=O)C1 (stereo not given)		0.941
COc1ccccc1CN1CCc2c([nH]c3ccccc23)C1c1cccc(O)c1 (stereo not given)	-0.002	
O=C(CCC1CCCN(C(=O)Cc2ccsc2)C1)NCc1ccccc1Cl (stereo not given)		0.929
CCC(C)NC(=O)N1CCc2[nH]nc(-c3ccc(Cl)cc3)c2C1 (stereo not given)	0.732	
Cc1ccccc1CC(=O)N1CCC2(CC1)CC2C(=O)NCCCc1ccccc1 (stereo not given)	0.011	
CC(C)c1nc2cccnc2n1C1CCN(C(=O)C2CCCCN2C)CC1 (stereo not given)	0.863	
CCn1ccnc1CN1CCCC(CCC(=O)Nc2ccc(OC)cc2C)C1 (stereo not given)		0.961
O=C(Cc1cn2ccsc2n1)NC1CCCN(C2CCCCCC2)C1 (stereo not given)		0.949

2 neighbouring entries already listed:
Structure (SMILES)	bacterial growth OD600 (polymyxin B 0.75 µg/mL)	bacterial growth OD600 (polymyxin B 1 µg/mL)
O=C(c1cccc(F)c1)N1CCC(C2(c3ccccn3)NC(=O)N(CCc3cccs3)C2=O)CC1 (stereo not given)	0.71	
COc1ccc(CNC(=O)CCC2CCCN(C(=O)/C=C/c3ccccn3)C2)c(OC)c1 (stereo not given)	0.802	
